Assay results reported in patent US20240105277A1, “DRUG DISCOVERY VIA REI[…] WITH THREE-D[…]” (priority 2022, published 2024).
Some entries share one result that the patent states for a list of compounds. At least one compound was matched to its structure with a doubt left.

Test system: Vero E6 (CRL-1586) cells
Assay: Cytotoxicity and cytopathic effect assay
Assay type: cell-based
Details: with efflux pump inhibitor CP-100356 (PZ); virus-infected Vero E6
Description: The in vitro antiviral activity of all four hits was evaluated in Vero E6 (CRL-1586) cells. The antiviral properties of the inhibitors were assessed in the absence and presence of an efflux pump inhibitor (CP-100356, labeled PZ). […] Because of high cytotoxic effects of these compounds at high doses, the high doses were removed in the EC50 curve fit for these compounds.
Briefly, on the day of infection, 5×10^3 Vero E6 cells were seeded in 20 μL cell culture medium (containing 5% FBS) in 384-well plates, using a MultiFlo FX multi-mode microplate dispenser (BioTek). The same day, compounds were added to the cells (25 μL/well, in EMEM with 5% FBS, 1% P/S), with 2 wells per concentration. After 2 h of compound preincubation, 5 μL of virus was added to the wells using a multi-channel pipette to MOI=0.1. Viruses were diluted in EMEM with 5% FBS, 1% P/S and was kept on ice until cells were ready for infection. Eight virus-only control wells were included as the […]. The virus plus cells and the cells were used to normalize the data set. After 72 h, 30 μL of CellTiter-Glo (Promega) was dispensed into each well by a MultiFlo FX multi-mode microplate dispenser. After a 10 min incubation at room temperature, the plates were loaded into a Perkin EnVision multi-mode microplate reader to read luminescence.

**Q.** With `O=C(CCl)N1CCN(Cc2cccc(Cl)c2)CC1` [Compound B] as the molecule, how does the “concentration at which cytotoxic effects are too high to show protective effect” value read?
**A.** Its value is at least 8.33 µM.
